Source: PMC9630973
These are yes or no findings as the source states them, for the method shown. Binding can be weak; no strength is given. Sequences can lack the tags named with a protein. For some of these results: In cells and extracts the contact can be indirect.

By UniProt entry, the sequences of proteins in these tests, tags left out. Where a name states a change or a piece, a line headed by the entry shows the natural chain unless it says otherwise.
UniProt B6D1Q5: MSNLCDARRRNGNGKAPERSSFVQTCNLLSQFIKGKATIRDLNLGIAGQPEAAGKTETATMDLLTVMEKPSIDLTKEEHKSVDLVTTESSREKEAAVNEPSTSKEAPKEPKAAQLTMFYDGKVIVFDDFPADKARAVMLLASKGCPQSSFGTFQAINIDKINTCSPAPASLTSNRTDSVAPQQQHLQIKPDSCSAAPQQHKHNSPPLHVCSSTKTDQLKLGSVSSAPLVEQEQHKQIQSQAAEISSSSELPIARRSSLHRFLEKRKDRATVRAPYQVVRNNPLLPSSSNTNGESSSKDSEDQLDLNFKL
UniProt A7XXZ0: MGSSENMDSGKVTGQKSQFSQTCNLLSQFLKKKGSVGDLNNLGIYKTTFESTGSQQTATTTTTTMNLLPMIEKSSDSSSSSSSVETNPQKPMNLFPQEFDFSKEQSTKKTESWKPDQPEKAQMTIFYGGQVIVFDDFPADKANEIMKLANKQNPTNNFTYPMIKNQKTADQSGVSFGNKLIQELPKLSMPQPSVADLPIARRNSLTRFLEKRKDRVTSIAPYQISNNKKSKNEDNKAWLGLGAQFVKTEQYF
UniProt A0A3Q7H988: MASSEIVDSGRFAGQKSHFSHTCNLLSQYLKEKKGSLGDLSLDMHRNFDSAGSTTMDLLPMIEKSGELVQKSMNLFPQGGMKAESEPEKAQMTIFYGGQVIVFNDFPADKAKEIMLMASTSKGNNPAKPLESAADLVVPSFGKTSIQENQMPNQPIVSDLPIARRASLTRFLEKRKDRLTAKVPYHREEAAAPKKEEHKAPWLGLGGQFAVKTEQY
UniProt A0A3Q7FUH8: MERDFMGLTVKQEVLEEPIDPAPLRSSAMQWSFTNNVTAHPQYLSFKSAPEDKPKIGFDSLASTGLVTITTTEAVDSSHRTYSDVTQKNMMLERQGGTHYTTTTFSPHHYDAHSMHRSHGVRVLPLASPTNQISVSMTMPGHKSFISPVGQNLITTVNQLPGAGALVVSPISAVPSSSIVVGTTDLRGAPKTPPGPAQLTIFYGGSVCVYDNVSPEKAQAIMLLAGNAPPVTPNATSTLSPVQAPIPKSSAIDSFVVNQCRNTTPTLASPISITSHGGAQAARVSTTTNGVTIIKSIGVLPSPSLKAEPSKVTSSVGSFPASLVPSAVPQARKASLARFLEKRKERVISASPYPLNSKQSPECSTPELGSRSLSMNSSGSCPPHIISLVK

B1: SlJAZ7-nLUC (protein, UniProt Q9M723 1-228)
chain: MDSRMEIDFMDLNSKPKLSEMEKQHKKVSGMKWPFSLADLATHHEHTFFQNYKSTPIVSINSKNSSLNNYKSTIDPQYFRGTFPLLAKTSTYDSRKNYDNLSPNESTLTIFYMGEVHIFPGISPEKAELIIDLVSKSTTLHMDEILEKVMNKEKYEENKSDPSNASTNYAKGALAMARRATLARFLEKRKHRLIKARPYLYGENLSKFPFDIQQQEEETASSSVHWEN
B2: myc-fused SlJAZ7 (protein, UniProt Q9M723 1-228)
chain: B1 chain
B3: SlJAZ7-nYFP (protein, UniProt Q9M723 1-228)
chain: B1 chain
B4: AD-SlJAZ7 (protein, UniProt Q9M723 1-228)
chain: B1 chain

Legend:
[1] = molecular target: BD-SlWRKY45 (tomato (Solanum lycopersicum)); assay: two-hybrid; AD-SlJAZs or AD-fused SlJAZ7/SlJAZ11 domain constructs (pB42AD) with BD-SlWRKY45 (pLexA), in yeast (Fig. 1B, 2B)
[2] = molecular target: cLUC (C-terminal fragment of LUC)-fused SlWRKY45 (tomato (Solanum lycopersicum)); assay: split reporter; firefly luciferase complementation imaging (LCI): nLUC and cLUC fusions coexpressed in N. benthamiana leaves, read 50 h after infiltration
[3] = molecular target: MBP-fused SlWRKY45 (tomato (Solanum lycopersicum)); assay: pull-down; MBP-SlWRKY45 or MBP on amylose resin (4 h, 4°C), incubated 2 h at 4°C with 200 μL extract of N. benthamiana leaves expressing myc-SlJAZ; anti-myc blot; only the target purified
[4] = molecular target: cYFP (C-terminal part of YFP)-fused SlWRKY45 (tomato (Solanum lycopersicum)); assay: split reporter; BiFC: nYFP and cYFP fusions coexpressed in N. benthamiana leaves, confocal microscopy 50 h after injection

Row | Molecule | binding [1] | other results
1 | AD-SlJAZ3 (from UniProt B6D1Q5) | binds | –
2 | AD-SlJAZ2 (from UniProt A7XXZ0) | binds | –
3 | AD-SlJAZ6 (from UniProt A0A3Q7E7J6) | binds | –
4 | AD-SlJAZ1 (from UniProt A0A3Q7H988) | binds | –
5 | AD-SlJAZ4 (from UniProt A0A3Q7JB95) | binds | –
6 | AD-SlJAZ5 (from UniProt A0A3Q7FUH8) | binds | –
7 | B1 | – | binding [2]: binds
8 | B2 | – | binding [3]: binds
9 | B3 | – | binding [4]: binds
10 | B4 | binds | –
